Drawing on PubChem BioAssay AID445 (National Center for Advancing Translational Sciences (NCATS), 2006), this text covers AC50 for 18 compounds.

Some of the results follow. Shown are side measurements of this screen, not its main read-out; they come without a call. Compounds called inactive in the main read-out are mostly missing here. The note in brackets gives the kind of curve behind each potency; many fits are weak.

The experiment in a line: IkB Signaling. To be noted: ABC-DLBCL IkBa-CBG/CBR dual luciferase ratio (green luciferase fused to IkBa over red control in OCI-Ly3 lymphoma cells), 4 h; measured here: control luc red channel unless noted. The method, boiled down:
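Luminescence ratio of IκBα-fused green versus native red beetle luciferase in OCI-Ly3 cells, 4 h post-doxycycline with compound; red signal alone, scaled from basal (0%) to zero light (-100%), flagged nonspecific or cytotoxic effects.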
Regarding `Cc1nc(-c2ccc(Cl)cc2)sc1CCNC(=O)C(=O)Nc1ccccc1C#N`, the AC50 was 31.6 µM [rising, single point].

For the compound `COc1ccc(NC(=O)Cn2c(SCc3c(F)cccc3Cl)nc3ccncc32)cc1OC`, the AC50 is 10 µM [falling, partial curve].

For `CCCCN(C(=O)Nc1ccc(OCC)cc1)C1CCN(C(C)=O)CC1`, the AC50 is 0.0251 µM [rising, full curve, poor fit].

In the case of `CCCN(CCC)C(=O)CSc1nc2ccccc2c(=O)n1C1CCCC1`, the AC50 was 25.1 µM [falling, partial curve].

For `CCCOc1ccc(C(=O)Nc2cccc(NC(=O)c3ccc(Cl)cc3Cl)c2)cc1`, the AC50 is 1.26 µM [falling, partial curve].

For `O=C(O)c1ccc(CSc2nc3cccnc3n2Cc2cccc(F)c2)cc1`, the AC50 was 25.1 µM [falling, single point].

Take `O=C(c1ccco1)N1CCN(C(=O)c2cc3c(s2)-c2ccccc2OC3)CC1`: the AC50 was 12.6 µM [falling, partial curve].

As for `CC1CCC(C(C)C)C(OC(=O)COC(=O)c2ccc(=O)[nH]c2)C1` (stereo not drawn), the AC50 was 20 µM [falling, single point].

Consider `COc1cc(NC(=O)CSc2ccc(-c3sc(C)nc3C)nn2)cc(OC)c1`, for which the AC50 is 15.8 µM [falling, partial curve].

Consider `COc1ccc(N2CCN(C(=O)c3ccc(CS(=O)c4cccc(C)c4)o3)CC2)cc1` (stereo not drawn), for which the AC50 was 2.51 µM [falling, partial curve].

As for `COc1ccc(Cl)cc1NC(=O)c1oc2ccc(S(=O)(=O)N3CCCCC3)cc2c1C`, the AC50 is 7.94 µM [falling, partial curve, poor fit].

On to `CC(C)CCOCC(=O)Nc1cccc(C(=O)O)c1`, for which the concentration at half-maximal activity (AC50) was 10 µM [falling, partial curve].

For `Cc1ccc2oc(=O)c(-c3nc(-c4cccs4)no3)cc2c1`, the AC50 is 25.1 µM [falling, partial curve].

In the case of `Cc1nn(CCC(=O)Nc2cccc(C#N)c2)c(C)c1S(=O)(=O)N1CCC(C)CC1`, the AC50 is 25.1 µM [falling, single point].

As to `COC(=O)Nc1ccc(S(=O)(=O)N2CCN(c3ccc(F)cc3)CC2)cc1`, the AC50 is 10 µM [falling, partial curve].

`COC(=O)c1ccccc1NC(=O)Cc1nc(-c2ccc(OC)cc2)no1`: the AC50 is 12.6 µM [falling, single point].

For `Cc1csc2nc(COC(=O)c3ccc(NC(=O)c4ccccc4Br)cc3)cc(=O)n12`, the AC50 was 7.94 µM [falling, full curve].

`COc1ccc(OC)c(NC(=O)CN(c2ccccc2OC)S(=O)(=O)c2ccc(C)cc2)c1`: the AC50 is 6.31 µM [falling, partial curve].
